# Experimental data published in the supplement of paper PMC8728848.
# The other results are listed elsewhere or left out.
# B1: R2-fiber (Pseudomonas aeruginosa), Q9S576 (protein)
# chain: HHHHHHKVAKDLVVSLAYQVRTEDGVLVDESPVSAPLDYLHGHGSLISGLETALEGHEVGDKFDVAVGANDAYGQYDENLVQRVPKDVFMGVDELQVGMRFLAETDQGPVPVEITAVEDDHVVVDGNHMLAGQNLKFNVEVVAIREATEEELAHGHVHGAHDHHHDHDHDGCCGGHGHDHGHEHGGEGCCGGKGNGGCGCHENLYFQGVTAGMALAATDIPGLDASKLVSGVLAEQRLPVFARGLATAVSNSSDPNTATVPLMLTNHANGPVAGRYFYIQSMFYPDQNGNASQIATSYNATSEMYVRVSYAANPSIREWLPWQRCDIGGSFTKEADGELPGGVNLDSMVTSGWWSQSFTAQAASGANYPIVRAGLLHVYAASSNFIYQTYQAYDGESFYFRCRHSNTWFPWRRMWHGGDFNPSDYLLKSGFYWNALPGKPATFPPSAHNHDVGQLTSGILPLARGGVGSNTAAGARSTIGAGVPATASLGASGWWRDNDTGLIRQWGQVTCPADADASITFPIPFPTLCLGGYANQTSAFHPGTDASTGFRGATTTTAVIRNGYFAQAVLSWEAFGR
# Columns and labels:
# Assay in all cases: glycan array binding signal (z-score within array); higher = stronger binding
# Conditions in all cases: glycan notation: IUPAC condensed, linker removed
# [1] = target: GlcNAc(b1-3)Gal(b1-4)GlcNAc(b1-3)Gal(b1-4)GlcNAc(b1-3)Gal(b1-4)GlcNAc(b1-3)Gal(b1-4)GlcNAc(b1-2)[GlcNAc(b1-3)Gal(b1-4)GlcNAc(b1-3)Gal(b1-4)GlcNAc(b1-3)Gal(b1-4)GlcNAc(b1-3)Gal(b1-4)GlcNAc(b1-6)]Man(a1-6)[GlcNAc(b1-3)Gal(b1-4)GlcNAc(b1-3)Gal(b1-4)GlcNAc(b1-3)Gal(b1-4)GlcNAc(b1-3)Gal(b1-4)GlcNAc(b1-2)Man(a1-3)]Man(b1-4)GlcNAc(b1-4)[Fuc(a1-6)]GlcNAc
# Outline: (§1)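 The binding signal is a Z-score computed within each array. Data were drawn from 3228 arrays in the Consortium for Functional Glycomics database, restricted to those with a known protein sequence. Scores were averaged over arrays of the same protein sequence at different concentrations or buffers, and over linkers, and negative values can be taken as non-binding.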
# [2] = target: GlcNAc(b1-3)Gal(b1-4)GlcNAc(b1-3)Gal(b1-4)GlcNAc(b1-3)GalNAc
# Outline: as §1
# [3] = target: GlcNAc(b1-3)Gal(b1-4)GlcNAc(b1-3)GalNAc
# Outline: as §1
# [4] = target: GlcNAc(b1-3)Gal(b1-4)GlcNAc(b1-3)[GlcNAc(b1-3)Gal(b1-4)GlcNAc(b1-3)]GalNAc
# Outline: as §1
# [5] = target: GlcNAc(b1-3)Gal(b1-4)GlcNAc(b1-6)[Gal(b1-3)]GalNAc
# Outline: as §1
# [6] = target: GlcNAc(b1-3)Gal(b1-4)GlcNAc(b1-6)[GlcNAc(b1-3)Gal(b1-3)]GalNAc
# Outline: as §1
# [7] = target: GlcNAc(b1-3)Gal(b1-4)GlcNAc(b1-6)[GlcNAc(b1-3)]Gal(b1-4)GlcNAc
# Outline: as §1
# GlcNAc(b1-3)GalNAc = target: GlcNAc(b1-3)GalNAc
# Outline: as §1
# GlcNAc(b1-3)Man = target: GlcNAc(b1-3)Man
# Outline: as §1
# [8] = target: GlcNAc(b1-3)[GlcNAc(b1-4)][GlcNAc(b1-6)]GlcNAc
# Outline: as §1
# [9] = target: GlcNAc(b1-3)[GlcNAc(b1-6)]Gal(b1-4)GlcNAc
# Outline: as §1
# [10] = target: GlcNAc(b1-3)[GlcNAc(b1-6)]GalNAc
# Outline: as §1
# [11] = target: GlcNAc(b1-4)Gal(b1-4)GlcNAc
# Outline: as §1
# GlcNAc(b1-4)GlcNAc = target: GlcNAc(b1-4)GlcNAc
# Outline: as §1
# [12] = target: GlcNAc(b1-4)GlcNAc(b1-4)GlcNAc
# Outline: as §1
# [13] = target: GlcNAc(b1-4)GlcNAc(b1-4)GlcNAc(b1-4)GlcNAc(b1-4)GlcNAc
# Outline: as §1
# [14] = target: GlcNAc(b1-4)GlcNAc(b1-4)GlcNAc(b1-4)GlcNAc(b1-4)GlcNAc(b1-4)GlcNAc
# Outline: as §1
# [15] = target: GlcNAc(b1-4)[GlcNAc(b1-6)]GalNAc
# Outline: as §1
# [16] = target: GlcNAc(b1-6)Gal(b1-4)GlcNAc
# Outline: as §1
# GlcNAc(b1-6)GalNAc = target: GlcNAc(b1-6)GalNAc
# Outline: as §1
# [17] = target: GlcNAc6S(b1-3)Gal(b1-4)GlcNAc
# Outline: as §1
# Kdn(a2-3)Gal(b1-3)GalNAc = target: Kdn(a2-3)Gal(b1-3)GalNAc
# Outline: as §1
# Kdn(a2-3)Gal(b1-3)GlcNAc = target: Kdn(a2-3)Gal(b1-3)GlcNAc
# Outline: as §1
# Kdn(a2-3)Gal(b1-4)Glc = target: Kdn(a2-3)Gal(b1-4)Glc
# Outline: as §1
# Kdn(a2-3)Gal(b1-4)GlcNAc = target: Kdn(a2-3)Gal(b1-4)GlcNAc
# Outline: as §1
# [18] = target: Kdn(a2-3)Gal(b1-4)[Fuc(a1-3)]GlcNAc
# Outline: as §1
# Kdn(a2-6)Gal(b1-4)GlcNAc = target: Kdn(a2-6)Gal(b1-4)GlcNAc
# Outline: as §1
# [19] = target: Man(a1-2)Man(a1-2)Man(a1-3)Man
# Outline: as §1
# [20] = target: Man(a1-2)Man(a1-2)Man(a1-6)[Man(a1-3)]Man
# Outline: as §1
# Man(a1-2)Man(a1-3)Man = target: Man(a1-2)Man(a1-3)Man
# Outline: as §1
binder,measurement,setting,value
B1,glycan array binding signal (z-score),[1],0.287
same,glycan array binding signal (z-score),[2],-0.639
same,glycan array binding signal (z-score),[3],-0.486
same,glycan array binding signal (z-score),[4],-0.041
same,glycan array binding signal (z-score),[5],0.122
same,glycan array binding signal (z-score),[6],1.3
same,glycan array binding signal (z-score),[7],-0.821
same,glycan array binding signal (z-score),GlcNAc(b1-3)GalNAc,-0.184
same,glycan array binding signal (z-score),GlcNAc(b1-3)Man,-0.043
same,glycan array binding signal (z-score),[8],-0.221
same,glycan array binding signal (z-score),[9],-0.419
same,glycan array binding signal (z-score),[10],0.283
same,glycan array binding signal (z-score),[11],-0.614
same,glycan array binding signal (z-score),GlcNAc(b1-4)GlcNAc,0.198
same,glycan array binding signal (z-score),[12],0.32
same,glycan array binding signal (z-score),[13],-0.085
same,glycan array binding signal (z-score),[14],-0.525
same,glycan array binding signal (z-score),[15],-0.684
same,glycan array binding signal (z-score),[16],-0.379
same,glycan array binding signal (z-score),GlcNAc(b1-6)GalNAc,-0.326
same,glycan array binding signal (z-score),[17],-0.144
same,glycan array binding signal (z-score),Kdn(a2-3)Gal(b1-3)GalNAc,0.063
same,glycan array binding signal (z-score),Kdn(a2-3)Gal(b1-3)GlcNAc,-0.223
same,glycan array binding signal (z-score),Kdn(a2-3)Gal(b1-4)Glc,-0.616
same,glycan array binding signal (z-score),Kdn(a2-3)Gal(b1-4)GlcNAc,-0.058
same,glycan array binding signal (z-score),[18],0.717
same,glycan array binding signal (z-score),Kdn(a2-6)Gal(b1-4)GlcNAc,-0.655
same,glycan array binding signal (z-score),[19],1.05
same,glycan array binding signal (z-score),[20],0.479
same,glycan array binding signal (z-score),Man(a1-2)Man(a1-3)Man,0.221

# Reprinted at random: two entries already listed
binder,measurement,setting,value
B1,glycan array binding signal (z-score),[19],1.05
same,glycan array binding signal (z-score),GlcNAc(b1-4)GlcNAc,0.198
